Assay results from paper PMC7862700.
This is a selection; strong and weak results do not stand in their true shares. For part of these data: At the low end of the ranking the order means little. The list shows a part of the results. For part of these data: The source does not settle which construct or isoform was used.

Chains of the proteins cited; added tags and fusions are not shown. Lines headed by an entry give the natural chain unless they say otherwise; changes in a name come on top.
UniProt P32519: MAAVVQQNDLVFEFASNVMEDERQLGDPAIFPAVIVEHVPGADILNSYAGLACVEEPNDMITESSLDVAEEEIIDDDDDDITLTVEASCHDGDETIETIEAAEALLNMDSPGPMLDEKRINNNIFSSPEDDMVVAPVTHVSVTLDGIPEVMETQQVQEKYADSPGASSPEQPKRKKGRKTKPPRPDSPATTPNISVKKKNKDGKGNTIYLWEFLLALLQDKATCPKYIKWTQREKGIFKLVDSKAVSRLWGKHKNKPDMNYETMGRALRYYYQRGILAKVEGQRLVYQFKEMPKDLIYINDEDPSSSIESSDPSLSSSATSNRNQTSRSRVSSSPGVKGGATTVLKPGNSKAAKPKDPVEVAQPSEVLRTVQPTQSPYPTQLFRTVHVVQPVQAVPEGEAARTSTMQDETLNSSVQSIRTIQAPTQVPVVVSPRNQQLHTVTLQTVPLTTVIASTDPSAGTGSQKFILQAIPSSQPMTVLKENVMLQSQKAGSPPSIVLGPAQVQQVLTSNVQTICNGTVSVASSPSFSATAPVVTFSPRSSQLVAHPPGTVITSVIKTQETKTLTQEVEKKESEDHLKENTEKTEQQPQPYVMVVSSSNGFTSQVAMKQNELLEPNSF
UniProt P50549: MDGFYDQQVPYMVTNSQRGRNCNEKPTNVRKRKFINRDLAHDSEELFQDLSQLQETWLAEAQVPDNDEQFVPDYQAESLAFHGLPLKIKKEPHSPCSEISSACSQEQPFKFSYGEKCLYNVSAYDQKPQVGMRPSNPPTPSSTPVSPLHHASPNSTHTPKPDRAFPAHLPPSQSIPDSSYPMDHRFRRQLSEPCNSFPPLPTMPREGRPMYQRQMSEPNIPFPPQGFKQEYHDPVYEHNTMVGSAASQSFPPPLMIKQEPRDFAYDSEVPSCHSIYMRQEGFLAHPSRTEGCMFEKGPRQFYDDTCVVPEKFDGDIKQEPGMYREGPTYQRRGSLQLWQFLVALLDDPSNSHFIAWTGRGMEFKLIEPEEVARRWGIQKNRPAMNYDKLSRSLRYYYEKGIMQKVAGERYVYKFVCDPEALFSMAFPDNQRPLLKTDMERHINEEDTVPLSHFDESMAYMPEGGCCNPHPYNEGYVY

How the values were obtained:
Assay in all cases: DAPPL (digital affinity profiling via proximity ligation, sequencing)
Conditions in all cases: 10 mM Tris-HCl pH 7.5, 50 mM NaCl, 1 mM DTT, 4% glycerol, room temperature, 30 min; GST-TFs on glutathione beads, 16-mer random dsDNA library, 0.1% …; high values mean tight binding; double strand, one strand shown; scale: fold enrichment (6-mer frequency, TF over GST control)
ERG = target: T1, ERG (UniProt P11308)
T1 sequence: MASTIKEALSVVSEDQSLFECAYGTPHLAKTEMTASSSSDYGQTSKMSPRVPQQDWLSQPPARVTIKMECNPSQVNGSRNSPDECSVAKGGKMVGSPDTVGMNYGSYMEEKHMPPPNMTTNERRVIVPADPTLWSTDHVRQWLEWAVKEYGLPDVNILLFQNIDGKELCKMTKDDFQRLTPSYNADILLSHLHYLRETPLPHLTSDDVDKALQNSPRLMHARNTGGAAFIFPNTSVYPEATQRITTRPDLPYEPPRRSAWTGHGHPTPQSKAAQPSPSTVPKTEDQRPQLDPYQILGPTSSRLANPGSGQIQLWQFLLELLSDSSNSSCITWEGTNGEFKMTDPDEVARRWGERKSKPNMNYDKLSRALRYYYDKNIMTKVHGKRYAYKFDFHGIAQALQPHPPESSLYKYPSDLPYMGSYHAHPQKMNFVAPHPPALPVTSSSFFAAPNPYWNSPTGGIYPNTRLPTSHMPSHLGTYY

ELF1 = ELF1 (UniProt P32519)
ELK4 = target: T2, ELK4 (UniProt P28324-2)
T2 sequence: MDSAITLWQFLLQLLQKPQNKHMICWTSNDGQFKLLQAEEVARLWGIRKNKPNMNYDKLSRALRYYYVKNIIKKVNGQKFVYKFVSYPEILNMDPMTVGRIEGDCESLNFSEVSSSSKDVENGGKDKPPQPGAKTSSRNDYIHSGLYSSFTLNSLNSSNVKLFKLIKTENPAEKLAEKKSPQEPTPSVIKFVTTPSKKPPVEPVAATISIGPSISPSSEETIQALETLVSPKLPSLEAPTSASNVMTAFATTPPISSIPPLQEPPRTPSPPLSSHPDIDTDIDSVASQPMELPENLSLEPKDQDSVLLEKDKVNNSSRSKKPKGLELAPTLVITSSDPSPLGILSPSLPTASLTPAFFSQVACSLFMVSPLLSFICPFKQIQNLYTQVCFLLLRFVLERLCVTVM

ETV4 = target: T3, ETV4 (UniProt P43268)
T3 sequence: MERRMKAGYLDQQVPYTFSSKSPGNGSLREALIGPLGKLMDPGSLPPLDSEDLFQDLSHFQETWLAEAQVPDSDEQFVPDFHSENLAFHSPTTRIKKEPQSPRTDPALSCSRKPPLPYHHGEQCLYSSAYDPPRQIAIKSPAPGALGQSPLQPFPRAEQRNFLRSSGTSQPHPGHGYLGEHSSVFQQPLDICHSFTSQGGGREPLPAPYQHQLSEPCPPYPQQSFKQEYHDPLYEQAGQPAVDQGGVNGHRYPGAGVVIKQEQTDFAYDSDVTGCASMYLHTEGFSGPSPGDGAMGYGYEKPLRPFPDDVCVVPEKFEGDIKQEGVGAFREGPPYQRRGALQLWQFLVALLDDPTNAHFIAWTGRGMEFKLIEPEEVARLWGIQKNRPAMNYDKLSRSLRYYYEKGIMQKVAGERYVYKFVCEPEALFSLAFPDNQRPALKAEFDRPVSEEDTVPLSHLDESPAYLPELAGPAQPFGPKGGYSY

ETV1 = ETV1 (UniProt P50549)
ERF = target: T4, ERF (UniProt P50548)
T4 sequence: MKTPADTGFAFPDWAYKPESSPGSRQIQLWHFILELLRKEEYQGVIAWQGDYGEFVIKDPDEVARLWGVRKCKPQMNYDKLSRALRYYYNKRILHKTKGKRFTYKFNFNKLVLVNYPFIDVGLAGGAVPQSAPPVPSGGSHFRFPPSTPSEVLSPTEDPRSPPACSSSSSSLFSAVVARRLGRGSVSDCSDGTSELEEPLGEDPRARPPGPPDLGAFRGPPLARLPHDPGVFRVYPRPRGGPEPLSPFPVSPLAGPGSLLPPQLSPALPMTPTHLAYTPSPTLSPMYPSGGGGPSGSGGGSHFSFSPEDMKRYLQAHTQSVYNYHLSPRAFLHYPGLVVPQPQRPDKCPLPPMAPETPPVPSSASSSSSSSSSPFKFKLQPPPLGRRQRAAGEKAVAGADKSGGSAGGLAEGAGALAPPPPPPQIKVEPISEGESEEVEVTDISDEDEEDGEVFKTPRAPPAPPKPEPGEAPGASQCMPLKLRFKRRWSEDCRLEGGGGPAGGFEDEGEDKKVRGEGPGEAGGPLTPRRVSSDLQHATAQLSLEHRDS

Row | Sequence | binding signal (ERG) | binding signal (ELF1) | binding signal (ELK4) | binding signal (ETV4) | binding signal (ETV1) | binding signal (ERF)
1 | AGGAGC | 0.438 | 0.407 | 0.35 | 0.38 | 0.372 | 0.429
2 | CGCGTG | 0.686 | 0.659 | 0.746 | 0.659 | 0.721 | 0.617
3 | AGCCCG | 0.853 | 0.876 | 0.909 | 0.939 | 0.888 | 0.937
4 | ACCGTG | 0.219 | 0.209 | 0.261 | 0.243 | 0.237 | 0.246
5 | AGCCAA | 0.882 | 0.933 | 0.883 | 0.881 | 0.884 | 0.95
6 | CAGCGG | 0.468 | 0.445 | 0.49 | 0.431 | 0.479 | 0.425
7 | GGTTGG | 0.719 | 0.763 | 0.836 | 0.676 | 0.74 | 0.682
8 | GTTAGA | 0.729 | 0.782 | 0.808 | 0.78 | 0.727 | 0.782
9 | AGGGAC | 0.728 | 0.757 | 0.73 | 0.792 | 0.76 | 0.862
10 | GCATAT | 0.95 | 0.886 | 1.07 | 0.971 | 0.89 | 0.961
11 | AAGCGT | 0.92 | 0.877 | 0.928 | 0.802 | 0.889 | 0.974
12 | CAGTGC | 0.732 | 0.8 | 0.751 | 0.839 | 0.729 | 0.798
13 | AGGCGC | 0.557 | 0.558 | 0.595 | 0.583 | 0.541 | 0.609
14 | ACGGGT | 0.884 | 0.94 | 0.94 | 0.924 | 0.92 | 0.889
15 | GGTTAG | 0.8 | 0.775 | 0.917 | 0.815 | 0.779 | 0.741
16 | TCGGTC | 0.57 | 0.561 | 0.606 | 0.549 | 0.566 | 0.599
17 | AGACAG | 0.533 | 0.509 | 0.521 | 0.468 | 0.496 | 0.499
18 | GAGGAG | 0.235 | 0.222 | 0.193 | 0.21 | 0.21 | 0.231
19 | CGGGGT | 0.637 | 0.675 | 0.544 | 0.652 | 0.656 | 0.619
20 | CCAGTC | 0.293 | 0.275 | 0.285 | 0.254 | 0.277 | 0.292

Row | Sequence | binding signal (ERG) | binding signal (ELF1) | binding signal (ELK4) | binding signal (ETV4) | binding signal (ETV1) | binding signal (ERF)
21 | GAGTCT | 0.415 | 0.397 | 0.449 | 0.446 | 0.418 | 0.426
22 | GGCACG | 0.876 | 0.848 | 0.837 | 0.887 | 0.818 | 0.843
23 | AGAGCA | 0.717 | 0.753 | 0.773 | 0.79 | 0.789 | 0.763
24 | AGGGGC | 0.836 | 0.746 | 0.754 | 0.809 | 0.764 | 0.881
25 | TAGAGG | 0.825 | 0.852 | 0.819 | 0.81 | 0.787 | 0.925
26 | CAACAG | 0.915 | 0.937 | 0.915 | 0.952 | 0.949 | 0.944
27 | GGGAAC | 0.693 | 0.65 | 0.683 | 0.658 | 0.705 | 0.633
28 | GTAGTC | 0.683 | 0.703 | 0.643 | 0.747 | 0.681 | 0.67
29 | TGGGGC | 0.778 | 0.857 | 0.9 | 0.798 | 0.912 | 0.847
30 | TGAGTG | 0.43 | 0.478 | 0.449 | 0.486 | 0.483 | 0.478
31 | GCCACG | 0.925 | 0.864 | 0.998 | 1.03 | 0.945 | 0.861
32 | CGAGCC | 0.853 | 0.912 | 0.924 | 0.905 | 0.888 | 0.869
33 | GGAGAT | 0.297 | 0.303 | 0.262 | 0.298 | 0.296 | 0.312
34 | CCACGG | 0.881 | 0.927 | 0.974 | 0.909 | 0.908 | 0.838
35 | ACCAGC | 0.891 | 0.923 | 0.886 | 0.884 | 0.814 | 0.866
36 | CGGACG | 0.499 | 0.433 | 0.418 | 0.477 | 0.465 | 0.448
37 | CGTGTA | 0.648 | 0.657 | 0.642 | 0.653 | 0.649 | 0.63
38 | ACGAGG | 0.74 | 0.814 | 0.776 | 0.805 | 0.74 | 0.742
39 | GGCAAC | 0.873 | 0.912 | 0.86 | 0.913 | 0.874 | 0.909
40 | GGTCAG | 0.512 | 0.539 | 0.52 | 0.551 | 0.551 | 0.506

Pulled one by one from the list above, four records:
Row | Sequence | binding signal (ERG) | binding signal (ELF1) | binding signal (ELK4) | binding signal (ETV4) | binding signal (ETV1) | binding signal (ERF)
30 | TGAGTG | 0.43 | 0.478 | 0.449 | 0.486 | 0.483 | 0.478
37 | CGTGTA | 0.648 | 0.657 | 0.642 | 0.653 | 0.649 | 0.63
39 | GGCAAC | 0.873 | 0.912 | 0.86 | 0.913 | 0.874 | 0.909
29 | TGGGGC | 0.778 | 0.857 | 0.9 | 0.798 | 0.912 | 0.847

Next part

Row | Sequence | binding signal (ERG) | binding signal (ELF1) | binding signal (ELK4) | binding signal (ETV4) | binding signal (ETV1) | binding signal (ERF)
41 | CGGCAG | 0.795 | 0.753 | 0.881 | 0.879 | 0.831 | 0.716
42 | GATTGA | 0.995 | 0.934 | 0.901 | 0.944 | 0.956 | 0.984
43 | CACAGA | 0.796 | 0.916 | 0.982 | 0.86 | 0.828 | 0.877
44 | AGGACA | 0.846 | 0.838 | 0.793 | 0.862 | 0.801 | 0.792
45 | GCGGTC | 0.649 | 0.68 | 0.655 | 0.73 | 0.615 | 0.642
46 | GGGCAG | 0.558 | 0.629 | 0.588 | 0.565 | 0.603 | 0.636
47 | GCCCAG | 0.745 | 0.723 | 0.724 | 0.751 | 0.755 | 0.724
48 | TGAGAC | 0.499 | 0.509 | 0.579 | 0.542 | 0.457 | 0.559
49 | TGAGGC | 0.435 | 0.501 | 0.56 | 0.474 | 0.488 | 0.531
50 | CACGTC | 0.907 | 0.854 | 0.806 | 0.827 | 0.875 | 0.815
51 | GGGTCC | 0.849 | 0.807 | 0.716 | 0.805 | 0.838 | 0.859
52 | TCGTGC | 0.779 | 0.788 | 0.831 | 0.707 | 0.743 | 0.743
53 | GCGCCA | 0.781 | 0.858 | 0.766 | 0.82 | 0.779 | 0.819
54 | CGCGAG | 0.569 | 0.533 | 0.495 | 0.534 | 0.561 | 0.601
55 | CGTGAA | 0.443 | 0.462 | 0.432 | 0.412 | 0.448 | 0.453
56 | AGTAAG | 0.717 | 0.767 | 0.713 | 0.754 | 0.795 | 0.678
57 | AGGCCA | 0.638 | 0.669 | 0.669 | 0.648 | 0.692 | 0.646
58 | AGGGTA | 0.854 | 0.89 | 0.975 | 0.861 | 0.91 | 0.942
59 | CGGGCA | 0.724 | 0.744 | 0.727 | 0.746 | 0.743 | 0.732
60 | AGCGTT | 0.875 | 0.939 | 0.957 | 0.842 | 0.937 | 0.964
